# Data: the supplement of paper PMC8007513
# Some of the results follow. Many values rest on one well or one pass, so single values are uncertain.
# Test system: Saccharomyces cerevisiae BY4743
# Assay: growth (OD600) with compound + IPBC relative to untreated control; higher = less growth inhibition
# Conditions: compound concentration: 133 uM; IPBC concentration: 0.5 ug/ml; 20 h
# Protocol: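 NMCCC compounds (133 uM) combined with IPBC (0.5 ug/ml) against Saccharomyces cerevisiae BY4743 in YPD, 96-well plates. Growth was read as OD600 at 20 h and expressed as % of the untreated control. Single pass.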
row,SMILES,growth [%]
1,CCOC(=O)N1CCN(CC1)C(=O)C2C\C(=N/O2)C3=CC=CC(=C3OC)OC (stereo unspecified) + CCCCNC(=O)OCC#CI [3-iodo-2-propynyl butylcarbamate (IPBC)],109
2,Oc1cccc2ccc(/C=C/c3ccc(Br)o3)nc12 + CCCCNC(=O)OCC#CI [3-iodo-2-propynyl butylcarbamate (IPBC)],94.9
3,COC(=O)c1cc(NC(=O)c2cc(S(N)(=O)=O)ccc2N2CCOCC2)ccc1F + CCCCNC(=O)OCC#CI [3-iodo-2-propynyl butylcarbamate (IPBC)],84.6
4,Cc1c(Cl)cccc1NC(=O)CNC(=O)CCCc1nc(O)c2ccccc2n1 + CCCCNC(=O)OCC#CI [3-iodo-2-propynyl butylcarbamate (IPBC)],97.1
5,CN(Cc1ccco1)C(=O)c1ccc(N2CCCS2(=O)=O)cc1 + CCCCNC(=O)OCC#CI [3-iodo-2-propynyl butylcarbamate (IPBC)],108
6,COC1=CC=C(N[S](=O)(=O)C2=CC=C3\N=C/N[S](=O)(=O)C3=C2)C=C1 + CCCCNC(=O)OCC#CI [3-iodo-2-propynyl butylcarbamate (IPBC)],101
7,O=C(CSc1nc2ccc[nH]c-2n1)Nc1nccs1 + CCCCNC(=O)OCC#CI [3-iodo-2-propynyl butylcarbamate (IPBC)],82.7
8,CC1CCCCC1NC(=O)CCNS(=O)(=O)c1ccc2nc(O)ccc2c1 (stereo unspecified) + CCCCNC(=O)OCC#CI [3-iodo-2-propynyl butylcarbamate (IPBC)],94.1
9,COC(=O)C(OC(=O)c1ccc(Cn2cncn2)cc1)c1ccccc1 (stereo unspecified) + CCCCNC(=O)OCC#CI [3-iodo-2-propynyl butylcarbamate (IPBC)],102
10,CCC(C)NC(=O)CCc1c(C)nc2nc(-c3cc(OC)cc(OC)c3)nn2c1C (stereo unspecified) + CCCCNC(=O)OCC#CI [3-iodo-2-propynyl butylcarbamate (IPBC)],106
11,CCOC(=O)N1CCN(c2ncc3c(n2)CCCC3=O)CC1 + CCCCNC(=O)OCC#CI [3-iodo-2-propynyl butylcarbamate (IPBC)],109
12,COc1ccc(Cl)cc1NC(=O)CSc1nccn1C1CCCC1 + CCCCNC(=O)OCC#CI [3-iodo-2-propynyl butylcarbamate (IPBC)],81.7
13,Cn1c(Cc2nnn(Cc3ccc(Cl)cc3Cl)n2)nnc1SCC#N + CCCCNC(=O)OCC#CI [3-iodo-2-propynyl butylcarbamate (IPBC)],100
14,O=S(=O)(NCc1ccccc1Cn1cccn1)c1ccccc1C(F)(F)F + CCCCNC(=O)OCC#CI [3-iodo-2-propynyl butylcarbamate (IPBC)],96
15,Cc1ccc(C(NS(=O)(=O)c2ccc(S(C)(=O)=O)cc2)c2cccs2)cc1 (stereo unspecified) + CCCCNC(=O)OCC#CI [3-iodo-2-propynyl butylcarbamate (IPBC)],70.8
16,CCOC(=O)C1=NOC\2=C1C(=O)N(C(C)C(=O)NC3=CC=CC(=C3C)Cl)C(=N2)\C (stereo unspecified) + CCCCNC(=O)OCC#CI [3-iodo-2-propynyl butylcarbamate (IPBC)],87.1
17,CCC(C)Nc1nc2c(c(=O)[nH]c(=O)n2C)n1CC(O)COc1ccc(C)cc1 (stereo unspecified) + CCCCNC(=O)OCC#CI [3-iodo-2-propynyl butylcarbamate (IPBC)],75.8
18,CCOC(=O)Cn1c(-c2cnn(CC)c2)nc2ccccc21 + CCCCNC(=O)OCC#CI [3-iodo-2-propynyl butylcarbamate (IPBC)],103
19,CC(=O)c1ccc(S(=O)(=O)N(C)CC(=O)Nc2ncccc2C)cc1 + CCCCNC(=O)OCC#CI [3-iodo-2-propynyl butylcarbamate (IPBC)],93.5
20,CN(CC(=O)NC1=CC=CC=C1Cl)C(=O)CN2\N=C/C(=O)C3=CC=CC=C23 + CCCCNC(=O)OCC#CI [3-iodo-2-propynyl butylcarbamate (IPBC)],92.6
21,CC(=O)c1oc2ccccc2c1NC(=O)CSc1nc[nH]n1 + CCCCNC(=O)OCC#CI [3-iodo-2-propynyl butylcarbamate (IPBC)],106

# For reference, some entries already given.
row,SMILES,growth [%]
10,CCC(C)NC(=O)CCc1c(C)nc2nc(-c3cc(OC)cc(OC)c3)nn2c1C (stereo unspecified) + CCCCNC(=O)OCC#CI [3-iodo-2-propynyl butylcarbamate (IPBC)],106
11,CCOC(=O)N1CCN(c2ncc3c(n2)CCCC3=O)CC1 + CCCCNC(=O)OCC#CI [3-iodo-2-propynyl butylcarbamate (IPBC)],109
